Here are results for 4 molecules from doi:10.1101/843326.

Chains of the proteins cited; added tags and fusions are not shown. Lines headed by an entry give the natural chain unless they say otherwise; changes in a name come on top.
UniProt P49069, whole entry: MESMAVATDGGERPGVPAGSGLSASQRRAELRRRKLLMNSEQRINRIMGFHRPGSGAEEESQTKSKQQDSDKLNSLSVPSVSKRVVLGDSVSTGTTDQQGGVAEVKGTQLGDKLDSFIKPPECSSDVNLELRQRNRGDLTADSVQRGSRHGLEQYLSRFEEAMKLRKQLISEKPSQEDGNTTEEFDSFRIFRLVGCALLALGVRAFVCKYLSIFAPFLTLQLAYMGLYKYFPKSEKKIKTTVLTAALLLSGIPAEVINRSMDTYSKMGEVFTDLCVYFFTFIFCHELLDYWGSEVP
UniProt Q9UGP8, whole entry: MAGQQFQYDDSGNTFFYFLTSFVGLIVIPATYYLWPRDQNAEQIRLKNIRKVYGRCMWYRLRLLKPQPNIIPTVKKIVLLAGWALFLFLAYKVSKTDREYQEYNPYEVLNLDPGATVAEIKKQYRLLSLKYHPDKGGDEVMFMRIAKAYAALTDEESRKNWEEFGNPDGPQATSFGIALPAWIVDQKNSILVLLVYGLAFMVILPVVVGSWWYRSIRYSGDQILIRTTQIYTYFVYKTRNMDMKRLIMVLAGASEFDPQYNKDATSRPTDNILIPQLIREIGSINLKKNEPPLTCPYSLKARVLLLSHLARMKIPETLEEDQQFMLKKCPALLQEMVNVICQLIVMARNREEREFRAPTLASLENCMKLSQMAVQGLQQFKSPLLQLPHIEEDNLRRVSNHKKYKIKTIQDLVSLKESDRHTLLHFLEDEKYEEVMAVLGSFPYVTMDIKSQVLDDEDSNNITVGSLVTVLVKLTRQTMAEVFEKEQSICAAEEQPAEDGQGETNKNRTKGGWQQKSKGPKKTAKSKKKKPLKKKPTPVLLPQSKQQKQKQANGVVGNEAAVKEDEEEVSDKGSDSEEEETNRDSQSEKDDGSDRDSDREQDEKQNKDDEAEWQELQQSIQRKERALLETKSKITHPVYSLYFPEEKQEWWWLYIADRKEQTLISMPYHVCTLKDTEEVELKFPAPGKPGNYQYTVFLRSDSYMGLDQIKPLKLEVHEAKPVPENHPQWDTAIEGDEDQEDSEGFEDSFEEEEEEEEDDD

Substitutions are numbered along the chain they refer to. In names and notes the source's numbering stands. No constants are given. Whether binding was seen depends on the method and setting. For some assays here: Binding seen in cells or lysates may run through a third protein. Some entries that bind do so weakly or less than the wild type. Tags and fused reporters may be left off the sequences shown.

In one assay the target is CAML-FLAG (UniProt P49069). The assay is described as follows: co-IP.
A further assay deals with Sec63-FLAG (UniProt Q9UGP8). The assay is described as follows: co-IP.
The target in the next assay is CAML-HA (UniProt P49069). The assay is described as follows: pull-down.

B1: WRB-HA-NFT (protein, UniProt O00258 1-174)
chain: MSSAAADHWAWLLVLSFVFGCNVLRILLPSFSSFMSRVLQKDAEQESQMRAEIQDMKQELSTVNMMDEFARYARLERKINKMTDKLKTHVKARTAQLAKIKWVISVAFYVLQAALMISLIWKYYSVPVAVVPSKWITPLDRLVAFPTRVAGGVGITCWILVCNKVVAIVLHPFS
Turning to B1, the binding result with CAML-FLAG is listed as “binds”.

B2: WRB (K164L)-HA-NFT (protein, UniProt O00258 1-174)
chain: B1 chain with K164L
Turning to B2, the binding entry with CAML-FLAG and with Sec63-FLAG was “binds weakly” throughout.

B3: WRB (K164D)-HA-NFT (protein, UniProt O00258 1-174)
chain: B1 chain with K164D
For the molecule B3, in the assay with CAML-FLAG, the binding result is “binds”.

B4: WRB (K164L)-FLAG (protein, UniProt O00258 1-174)
chain: B1 chain with K164L
Take B4: in the assay with CAML-HA, the binding result is on record as “binds”.
